Construct, isoform or probe ends are uncertain for at least one entry. For some of these results: Protein sequences can lack the tags named with them.
Tests used:
Test in all cases: protein microarray
Conditions in all cases: 10-fold cold unmethylated competitor; 5mC at CpG (SssI, both strands); recombinant protein; protein details: GST (N-terminal); label: Cy5
GATA4 (Homo sapiens) = GATA4 (Homo sapiens) (UniProt P43694)
HOXA5 (Homo sapiens) = HOXA5 (Homo sapiens) (UniProt P20719)
HOXA9 (Homo sapiens) = HOXA9 (Homo sapiens) (UniProt P31269)
KEAP1 (Homo sapiens) = KEAP1 (Homo sapiens) (UniProt Q14145)
PPARG (Homo sapiens) = PPARG (Homo sapiens) (UniProt P37231)
SCAPER (Homo sapiens) = target: T1, SCAPER (Homo sapiens) (UniProt Q9BY12)
T1 sequence (looked up, limits assumed): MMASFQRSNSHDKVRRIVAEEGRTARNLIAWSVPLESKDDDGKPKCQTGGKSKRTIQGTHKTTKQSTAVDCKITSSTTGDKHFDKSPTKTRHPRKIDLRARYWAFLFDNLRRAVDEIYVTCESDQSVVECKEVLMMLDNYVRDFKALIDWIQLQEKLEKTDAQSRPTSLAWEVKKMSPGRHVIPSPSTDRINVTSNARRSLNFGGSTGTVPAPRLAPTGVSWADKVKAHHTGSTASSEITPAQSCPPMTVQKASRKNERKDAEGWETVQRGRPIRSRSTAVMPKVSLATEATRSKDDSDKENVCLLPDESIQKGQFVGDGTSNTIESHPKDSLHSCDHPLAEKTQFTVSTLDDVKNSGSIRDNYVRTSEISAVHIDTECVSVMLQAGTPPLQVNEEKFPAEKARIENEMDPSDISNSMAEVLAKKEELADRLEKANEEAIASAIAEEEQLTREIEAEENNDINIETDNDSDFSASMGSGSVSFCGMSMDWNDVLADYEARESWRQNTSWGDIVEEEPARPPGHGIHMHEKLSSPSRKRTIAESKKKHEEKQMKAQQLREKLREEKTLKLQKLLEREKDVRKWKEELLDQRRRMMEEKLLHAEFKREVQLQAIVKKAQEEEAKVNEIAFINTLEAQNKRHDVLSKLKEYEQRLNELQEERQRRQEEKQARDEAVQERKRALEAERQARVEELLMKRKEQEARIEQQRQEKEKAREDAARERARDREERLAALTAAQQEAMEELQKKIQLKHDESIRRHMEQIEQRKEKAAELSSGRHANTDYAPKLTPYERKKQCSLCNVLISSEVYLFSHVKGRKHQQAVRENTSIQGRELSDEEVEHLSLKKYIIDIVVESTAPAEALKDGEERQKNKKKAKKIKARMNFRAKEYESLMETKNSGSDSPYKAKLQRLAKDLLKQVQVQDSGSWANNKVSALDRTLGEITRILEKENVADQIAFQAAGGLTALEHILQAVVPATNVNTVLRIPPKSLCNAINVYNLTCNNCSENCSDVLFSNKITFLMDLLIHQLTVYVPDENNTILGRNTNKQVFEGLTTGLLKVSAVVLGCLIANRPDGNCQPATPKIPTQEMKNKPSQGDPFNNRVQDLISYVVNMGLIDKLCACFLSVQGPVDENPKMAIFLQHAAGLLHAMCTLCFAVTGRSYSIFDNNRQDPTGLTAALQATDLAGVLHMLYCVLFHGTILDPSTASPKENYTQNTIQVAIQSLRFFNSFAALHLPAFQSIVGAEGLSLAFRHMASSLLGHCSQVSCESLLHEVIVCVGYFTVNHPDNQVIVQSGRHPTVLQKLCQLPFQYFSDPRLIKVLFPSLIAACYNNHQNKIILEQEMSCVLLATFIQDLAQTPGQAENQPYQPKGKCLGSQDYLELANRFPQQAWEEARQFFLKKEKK

Amino acid sequences for entries named in this document (tags omitted). A change or cut given only in a name is not applied to a line headed by its entry.
UniProt P43694: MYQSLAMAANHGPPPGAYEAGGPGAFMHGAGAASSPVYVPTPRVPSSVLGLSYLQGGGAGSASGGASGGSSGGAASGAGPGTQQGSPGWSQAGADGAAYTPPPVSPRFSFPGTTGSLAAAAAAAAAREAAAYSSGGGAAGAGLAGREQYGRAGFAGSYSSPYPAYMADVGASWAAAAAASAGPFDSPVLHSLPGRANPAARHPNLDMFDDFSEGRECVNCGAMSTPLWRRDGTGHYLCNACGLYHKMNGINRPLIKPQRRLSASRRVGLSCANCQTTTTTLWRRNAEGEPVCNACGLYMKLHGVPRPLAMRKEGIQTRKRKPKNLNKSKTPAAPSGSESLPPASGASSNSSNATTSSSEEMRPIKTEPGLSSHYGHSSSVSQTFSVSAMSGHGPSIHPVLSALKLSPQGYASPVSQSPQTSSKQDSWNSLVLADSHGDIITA
UniProt P20719: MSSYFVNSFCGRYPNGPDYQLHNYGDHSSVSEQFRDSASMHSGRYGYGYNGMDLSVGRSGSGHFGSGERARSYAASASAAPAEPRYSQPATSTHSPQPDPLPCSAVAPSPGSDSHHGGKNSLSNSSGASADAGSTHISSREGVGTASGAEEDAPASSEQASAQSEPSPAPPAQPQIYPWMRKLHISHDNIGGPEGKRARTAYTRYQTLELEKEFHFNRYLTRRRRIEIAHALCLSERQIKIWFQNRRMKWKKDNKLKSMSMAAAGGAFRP
UniProt P31269, whole entry: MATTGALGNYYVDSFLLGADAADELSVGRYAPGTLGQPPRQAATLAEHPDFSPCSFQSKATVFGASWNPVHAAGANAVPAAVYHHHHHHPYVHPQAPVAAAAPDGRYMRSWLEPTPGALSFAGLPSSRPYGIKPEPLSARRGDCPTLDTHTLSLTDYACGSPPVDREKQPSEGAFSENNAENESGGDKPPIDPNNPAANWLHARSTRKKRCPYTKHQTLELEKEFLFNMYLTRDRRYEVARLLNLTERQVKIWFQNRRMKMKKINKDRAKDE
UniProt Q14145, whole entry: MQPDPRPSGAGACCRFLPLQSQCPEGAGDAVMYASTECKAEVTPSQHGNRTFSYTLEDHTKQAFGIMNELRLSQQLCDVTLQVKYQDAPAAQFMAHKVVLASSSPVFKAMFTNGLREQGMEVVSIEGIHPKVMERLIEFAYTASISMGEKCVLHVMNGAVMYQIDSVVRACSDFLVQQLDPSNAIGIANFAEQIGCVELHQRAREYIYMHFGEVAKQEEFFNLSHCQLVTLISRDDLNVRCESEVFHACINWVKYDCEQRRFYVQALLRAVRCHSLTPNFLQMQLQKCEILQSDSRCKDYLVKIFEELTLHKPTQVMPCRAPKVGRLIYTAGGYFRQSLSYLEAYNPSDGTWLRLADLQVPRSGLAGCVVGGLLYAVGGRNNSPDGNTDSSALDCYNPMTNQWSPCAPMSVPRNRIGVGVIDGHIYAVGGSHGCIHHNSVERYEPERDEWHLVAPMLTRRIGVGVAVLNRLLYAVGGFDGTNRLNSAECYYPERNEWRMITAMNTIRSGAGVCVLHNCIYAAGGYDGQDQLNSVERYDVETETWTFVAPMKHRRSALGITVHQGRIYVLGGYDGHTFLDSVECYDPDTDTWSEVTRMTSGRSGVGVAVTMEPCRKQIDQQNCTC
UniProt P37231: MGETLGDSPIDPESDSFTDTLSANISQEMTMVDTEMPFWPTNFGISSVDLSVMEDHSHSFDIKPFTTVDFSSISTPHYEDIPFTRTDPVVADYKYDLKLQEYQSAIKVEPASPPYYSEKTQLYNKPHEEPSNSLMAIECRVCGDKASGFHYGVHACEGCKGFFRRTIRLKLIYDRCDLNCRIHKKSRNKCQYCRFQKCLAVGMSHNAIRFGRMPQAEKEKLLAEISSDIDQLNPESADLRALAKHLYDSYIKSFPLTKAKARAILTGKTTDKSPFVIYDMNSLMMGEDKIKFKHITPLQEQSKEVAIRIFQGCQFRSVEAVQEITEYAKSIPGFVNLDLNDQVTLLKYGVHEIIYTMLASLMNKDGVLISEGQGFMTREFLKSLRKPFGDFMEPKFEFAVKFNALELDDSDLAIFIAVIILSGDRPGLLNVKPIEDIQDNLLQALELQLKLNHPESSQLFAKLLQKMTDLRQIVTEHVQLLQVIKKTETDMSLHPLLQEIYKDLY
UniProt Q8NC26: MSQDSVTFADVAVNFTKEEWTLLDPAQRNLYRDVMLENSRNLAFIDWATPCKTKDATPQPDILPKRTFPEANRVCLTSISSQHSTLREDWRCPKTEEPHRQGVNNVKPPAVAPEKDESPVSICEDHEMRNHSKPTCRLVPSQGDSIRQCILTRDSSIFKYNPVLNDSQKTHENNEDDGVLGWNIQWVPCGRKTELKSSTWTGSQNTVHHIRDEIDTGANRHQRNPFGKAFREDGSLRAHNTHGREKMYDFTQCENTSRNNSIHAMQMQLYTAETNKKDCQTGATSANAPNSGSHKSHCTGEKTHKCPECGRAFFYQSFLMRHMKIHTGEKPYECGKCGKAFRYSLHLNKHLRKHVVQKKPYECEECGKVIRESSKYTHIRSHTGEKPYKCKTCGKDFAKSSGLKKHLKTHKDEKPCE
UniProt Q9BWM5: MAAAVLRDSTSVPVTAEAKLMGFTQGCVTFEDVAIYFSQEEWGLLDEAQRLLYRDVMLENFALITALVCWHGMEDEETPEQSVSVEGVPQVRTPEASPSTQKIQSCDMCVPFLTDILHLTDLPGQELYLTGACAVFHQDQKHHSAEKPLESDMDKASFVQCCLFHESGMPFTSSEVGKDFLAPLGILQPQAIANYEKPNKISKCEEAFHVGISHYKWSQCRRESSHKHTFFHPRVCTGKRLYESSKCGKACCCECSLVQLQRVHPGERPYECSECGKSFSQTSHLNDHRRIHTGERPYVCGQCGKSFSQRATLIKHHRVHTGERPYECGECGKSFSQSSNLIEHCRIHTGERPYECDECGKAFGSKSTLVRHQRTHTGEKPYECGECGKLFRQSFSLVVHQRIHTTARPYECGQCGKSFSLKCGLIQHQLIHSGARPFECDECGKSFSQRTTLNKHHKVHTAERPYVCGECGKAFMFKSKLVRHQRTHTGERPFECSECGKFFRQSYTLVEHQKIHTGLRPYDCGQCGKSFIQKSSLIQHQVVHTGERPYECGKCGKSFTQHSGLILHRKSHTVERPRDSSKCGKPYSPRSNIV
UniProt Q8TAF7: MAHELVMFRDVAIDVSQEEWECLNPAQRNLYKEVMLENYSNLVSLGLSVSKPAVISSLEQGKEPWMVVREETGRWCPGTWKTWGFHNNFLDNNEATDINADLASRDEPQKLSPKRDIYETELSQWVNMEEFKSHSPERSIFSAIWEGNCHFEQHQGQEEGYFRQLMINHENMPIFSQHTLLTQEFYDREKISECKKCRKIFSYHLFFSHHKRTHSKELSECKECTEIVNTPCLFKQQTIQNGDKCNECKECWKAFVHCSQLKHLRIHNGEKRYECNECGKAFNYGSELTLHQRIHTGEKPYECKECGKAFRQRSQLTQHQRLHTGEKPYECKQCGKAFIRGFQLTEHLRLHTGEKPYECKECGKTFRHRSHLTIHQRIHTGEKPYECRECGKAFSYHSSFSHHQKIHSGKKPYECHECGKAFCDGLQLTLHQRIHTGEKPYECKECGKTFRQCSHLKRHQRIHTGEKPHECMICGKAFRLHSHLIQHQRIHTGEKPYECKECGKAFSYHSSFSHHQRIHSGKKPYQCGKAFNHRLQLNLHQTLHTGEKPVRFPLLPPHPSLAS
UniProt O00716: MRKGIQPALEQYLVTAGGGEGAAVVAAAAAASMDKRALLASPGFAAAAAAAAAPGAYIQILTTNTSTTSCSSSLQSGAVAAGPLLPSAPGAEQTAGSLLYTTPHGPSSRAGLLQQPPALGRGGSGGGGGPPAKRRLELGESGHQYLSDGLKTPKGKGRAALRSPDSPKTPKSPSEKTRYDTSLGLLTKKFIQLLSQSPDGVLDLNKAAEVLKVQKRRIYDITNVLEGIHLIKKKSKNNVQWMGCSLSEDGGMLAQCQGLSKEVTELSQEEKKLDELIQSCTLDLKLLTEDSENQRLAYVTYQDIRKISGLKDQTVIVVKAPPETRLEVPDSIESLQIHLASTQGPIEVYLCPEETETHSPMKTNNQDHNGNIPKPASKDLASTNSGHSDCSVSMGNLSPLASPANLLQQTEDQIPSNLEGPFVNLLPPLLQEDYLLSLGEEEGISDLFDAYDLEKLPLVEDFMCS
UniProt Q8IW36: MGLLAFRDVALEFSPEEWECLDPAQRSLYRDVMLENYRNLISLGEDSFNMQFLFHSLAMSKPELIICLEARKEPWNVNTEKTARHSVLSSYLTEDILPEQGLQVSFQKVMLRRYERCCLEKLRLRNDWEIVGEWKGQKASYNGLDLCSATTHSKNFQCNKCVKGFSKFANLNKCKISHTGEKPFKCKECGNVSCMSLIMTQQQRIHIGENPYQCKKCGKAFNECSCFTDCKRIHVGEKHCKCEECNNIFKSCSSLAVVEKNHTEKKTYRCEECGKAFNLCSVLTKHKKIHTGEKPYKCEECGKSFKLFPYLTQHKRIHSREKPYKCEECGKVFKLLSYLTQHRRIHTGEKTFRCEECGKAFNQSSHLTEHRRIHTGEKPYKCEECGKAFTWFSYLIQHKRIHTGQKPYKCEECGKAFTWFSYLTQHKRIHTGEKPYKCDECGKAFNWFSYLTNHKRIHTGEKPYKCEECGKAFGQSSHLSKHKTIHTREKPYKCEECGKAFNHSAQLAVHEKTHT

ZCCHC7 (Homo sapiens) = target: T2, ZCCHC7 (Homo sapiens) (UniProt Q8N3Z6)
T2 sequence (looked up, limits assumed): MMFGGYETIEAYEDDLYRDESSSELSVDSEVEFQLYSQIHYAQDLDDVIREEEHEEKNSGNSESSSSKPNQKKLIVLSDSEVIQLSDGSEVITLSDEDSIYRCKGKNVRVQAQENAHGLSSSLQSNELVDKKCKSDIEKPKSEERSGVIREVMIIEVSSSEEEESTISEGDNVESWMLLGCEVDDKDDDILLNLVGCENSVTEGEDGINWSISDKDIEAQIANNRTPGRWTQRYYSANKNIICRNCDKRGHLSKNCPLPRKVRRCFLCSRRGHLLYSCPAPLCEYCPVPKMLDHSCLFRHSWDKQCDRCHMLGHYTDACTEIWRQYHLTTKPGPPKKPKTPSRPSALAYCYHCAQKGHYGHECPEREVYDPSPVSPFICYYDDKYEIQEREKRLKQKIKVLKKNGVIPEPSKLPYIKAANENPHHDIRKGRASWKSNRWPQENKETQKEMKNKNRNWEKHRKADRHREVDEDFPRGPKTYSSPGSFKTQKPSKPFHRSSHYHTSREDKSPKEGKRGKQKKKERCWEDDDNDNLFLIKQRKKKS

ZNF114 (Homo sapiens) = ZNF114 (Homo sapiens) (UniProt Q8NC26)
ZNF416 (Homo sapiens) = ZNF416 (Homo sapiens) (UniProt Q9BWM5)
FOXC1 (Homo sapiens) = target: T3, FOXC1 (Homo sapiens) (UniProt Q12948)
T3 sequence (looked up, limits assumed): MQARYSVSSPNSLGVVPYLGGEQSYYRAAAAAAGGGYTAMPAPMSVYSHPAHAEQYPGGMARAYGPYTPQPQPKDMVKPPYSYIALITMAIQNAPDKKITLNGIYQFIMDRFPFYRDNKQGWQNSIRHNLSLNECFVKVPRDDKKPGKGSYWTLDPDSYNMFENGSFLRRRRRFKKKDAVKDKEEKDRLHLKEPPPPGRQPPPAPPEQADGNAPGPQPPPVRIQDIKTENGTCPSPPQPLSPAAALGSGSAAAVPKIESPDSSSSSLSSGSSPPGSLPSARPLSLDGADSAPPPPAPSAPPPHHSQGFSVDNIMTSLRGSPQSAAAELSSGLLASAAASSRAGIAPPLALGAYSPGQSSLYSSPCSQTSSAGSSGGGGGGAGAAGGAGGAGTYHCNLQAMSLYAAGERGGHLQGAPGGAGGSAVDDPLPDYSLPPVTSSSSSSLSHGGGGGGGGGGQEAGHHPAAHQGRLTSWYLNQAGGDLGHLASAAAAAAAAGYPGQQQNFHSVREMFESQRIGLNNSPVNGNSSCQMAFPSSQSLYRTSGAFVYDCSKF

ZNF461 (Homo sapiens) = ZNF461 (Homo sapiens) (UniProt Q8TAF7)
E2F3 (Homo sapiens) = E2F3 (Homo sapiens) (UniProt O00716)
PMS1 (Homo sapiens) = target: T4, PMS1 (Homo sapiens) (UniProt P54277)
T4 sequence (looked up, limits assumed): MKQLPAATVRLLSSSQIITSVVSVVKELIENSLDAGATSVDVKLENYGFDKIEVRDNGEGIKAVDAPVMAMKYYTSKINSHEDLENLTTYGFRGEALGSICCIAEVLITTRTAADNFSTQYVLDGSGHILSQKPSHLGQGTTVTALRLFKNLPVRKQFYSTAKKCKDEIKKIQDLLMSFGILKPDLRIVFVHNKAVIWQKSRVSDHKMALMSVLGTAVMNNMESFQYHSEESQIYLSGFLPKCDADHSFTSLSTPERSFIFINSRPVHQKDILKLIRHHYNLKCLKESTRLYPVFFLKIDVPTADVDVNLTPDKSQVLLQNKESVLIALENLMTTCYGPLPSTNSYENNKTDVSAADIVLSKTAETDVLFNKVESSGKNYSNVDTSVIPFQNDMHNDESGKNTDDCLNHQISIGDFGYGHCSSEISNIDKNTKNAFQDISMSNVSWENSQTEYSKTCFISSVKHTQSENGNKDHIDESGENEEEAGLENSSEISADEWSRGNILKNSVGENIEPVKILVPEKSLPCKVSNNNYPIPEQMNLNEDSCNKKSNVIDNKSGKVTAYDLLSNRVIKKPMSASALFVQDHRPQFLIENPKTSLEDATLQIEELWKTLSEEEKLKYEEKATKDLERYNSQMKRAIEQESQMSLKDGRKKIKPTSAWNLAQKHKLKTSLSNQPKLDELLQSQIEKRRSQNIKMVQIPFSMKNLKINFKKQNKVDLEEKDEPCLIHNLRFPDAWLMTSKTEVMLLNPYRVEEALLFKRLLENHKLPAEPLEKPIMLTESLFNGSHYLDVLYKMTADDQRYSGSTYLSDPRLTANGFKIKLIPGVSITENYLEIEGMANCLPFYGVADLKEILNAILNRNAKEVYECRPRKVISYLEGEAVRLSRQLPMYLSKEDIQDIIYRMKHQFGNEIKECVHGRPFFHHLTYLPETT

ZMYM3 (Homo sapiens) = target: T5, ZMYM3 (Homo sapiens) (UniProt Q14202)
T5 sequence (looked up, limits assumed): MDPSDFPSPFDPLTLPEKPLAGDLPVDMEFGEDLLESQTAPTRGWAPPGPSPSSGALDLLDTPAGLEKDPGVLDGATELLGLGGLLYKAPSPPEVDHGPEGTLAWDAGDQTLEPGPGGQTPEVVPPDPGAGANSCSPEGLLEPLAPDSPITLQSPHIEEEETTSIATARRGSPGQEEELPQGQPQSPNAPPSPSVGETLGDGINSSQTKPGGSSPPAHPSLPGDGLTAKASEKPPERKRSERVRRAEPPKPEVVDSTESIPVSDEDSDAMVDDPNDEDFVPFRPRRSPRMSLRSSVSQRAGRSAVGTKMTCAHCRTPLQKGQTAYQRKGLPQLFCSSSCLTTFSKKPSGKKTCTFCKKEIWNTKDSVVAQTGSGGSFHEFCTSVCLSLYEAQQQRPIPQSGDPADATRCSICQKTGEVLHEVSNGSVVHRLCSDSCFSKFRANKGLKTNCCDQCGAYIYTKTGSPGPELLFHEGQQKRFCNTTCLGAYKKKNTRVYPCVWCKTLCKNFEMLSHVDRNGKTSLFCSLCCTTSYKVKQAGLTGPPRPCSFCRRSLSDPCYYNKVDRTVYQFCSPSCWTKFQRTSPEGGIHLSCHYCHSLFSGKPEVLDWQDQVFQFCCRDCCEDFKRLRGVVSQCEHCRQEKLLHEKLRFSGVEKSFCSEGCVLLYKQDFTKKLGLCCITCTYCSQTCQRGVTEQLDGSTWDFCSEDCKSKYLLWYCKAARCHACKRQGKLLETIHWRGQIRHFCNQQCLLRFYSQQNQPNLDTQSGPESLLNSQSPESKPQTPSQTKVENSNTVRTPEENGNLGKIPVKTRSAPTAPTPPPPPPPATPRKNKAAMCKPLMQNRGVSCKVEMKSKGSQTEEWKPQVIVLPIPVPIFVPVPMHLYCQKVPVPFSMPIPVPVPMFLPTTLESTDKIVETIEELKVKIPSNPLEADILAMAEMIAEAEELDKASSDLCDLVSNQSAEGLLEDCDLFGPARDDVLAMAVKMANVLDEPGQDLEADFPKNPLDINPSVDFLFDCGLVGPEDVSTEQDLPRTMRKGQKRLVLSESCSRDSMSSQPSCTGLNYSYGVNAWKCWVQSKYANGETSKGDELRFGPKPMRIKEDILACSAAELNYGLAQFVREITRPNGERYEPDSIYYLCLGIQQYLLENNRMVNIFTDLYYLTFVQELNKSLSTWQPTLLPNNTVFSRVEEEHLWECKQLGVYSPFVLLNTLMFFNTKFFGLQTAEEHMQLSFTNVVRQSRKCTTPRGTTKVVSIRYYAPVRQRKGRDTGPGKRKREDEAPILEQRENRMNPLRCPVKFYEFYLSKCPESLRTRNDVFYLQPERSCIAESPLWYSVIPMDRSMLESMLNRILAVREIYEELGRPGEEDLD

ZNF695 (Homo sapiens) = ZNF695 (Homo sapiens) (UniProt Q8IW36)

Measured: binding result

AACGGGTTTTTAACGGGTTCCCTATAGTGAGTGCTATTA (double strand) [M413]
not listed: FOXC1 (Homo sapiens) | ZNF461 (Homo sapiens) | E2F3 (Homo sapiens) | PMS1 (Homo sapiens) | ZMYM3 (Homo sapiens) | ZNF695 (Homo sapiens)
binds: all other assays above

CGGCCCGAAACGGCCCGCCCTATAGTGAGTGCTATTA (double strand) [M73]
binds: FOXC1 (Homo sapiens) | HOXA5 (Homo sapiens) | ZNF114 (Homo sapiens)

TGCGTGAGAAGAGGGTGCGTGAGAAGACCCTATAGTGAGTGCTATTA (double strand) [M10]
binds: FOXC1 (Homo sapiens) | HOXA5 (Homo sapiens) | ZNF461 (Homo sapiens)

GTGACGTAAAGTGACGTCCCTATAGTGAGTGCTATTA (double strand) [M206]
binds: E2F3 (Homo sapiens) | GATA4 (Homo sapiens) | PMS1 (Homo sapiens) | ZMYM3 (Homo sapiens) | ZNF114 (Homo sapiens) | ZNF416 (Homo sapiens) | ZNF695 (Homo sapiens)

— paper PMC3762332
